Assay results published in PubChem BioAssay AID624297 (National Center for Advancing Translational Sciences (NCATS), 2012).
About 6,200 (1.8%) of roughly 340,000 compounds were called active. The shares of active, inactive and inconclusive entries below differ from those in the screen. Calls come from the whole dose curve; as a rule, active = well fitted activation curve with a large enough effect; inconclusive = small, poorly fitted or top-dose-only effect; inactive = no such curve, though single readings can be large or run the other way. Potencies of inconclusive entries are doubtful fits and often do not repeat.

Experiment: A quantitative high throughput screen for small molecules that induce DNA re-replication in SW480 colon adenocarcinoma cells. For re-replication activation: % of control where 0% means no effect. Note: nearly all actives have a fitted effect of over 55% in size.
Settings: Hoechst DNA content imaging, 48 h; re-replication activation: at 46.1 µM (top of the series)
Method in brief: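 250 cells/well; 23 nL cpd via pin tool; 48 hr, 37 C, 5% CO2; Hoechst 40 min; imager read of total nuclear intensity, ex 405/em 500-530 nm.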
Potency is the fitted concentration of half-maximal effect.

SMILES | Potency | re-replication activation
CN1C/C(=C/c2ccsc2)C(=O)/C(=C/c2ccsc2)C1 | active: 3.26 µM | 
COc1cc2c(c(OC)c1OC)-c1ccc(OC)c(=O)cc1[C@@H](N(C)CC#CCO)CC2 | inconclusive: 0.206 µM [activator, full curve, poor fit] | 
COc1cc(C)cc2oc(=O)c(CC(=O)N3CCN(C(=O)C4COc5ccccc5O4)CC3)c(C)c12 (stereo unspecified) | inconclusive: 0.92 µM [activator, partial curve, poor fit] | 
Cc1csc(SCC(=O)NC(=O)Cc2ccccc2)n1 | inconclusive: 4.11 µM [activator, partial curve, poor fit] | 
C/C(=N\NC(N)=O)c1ccc(Cl)cc1 | inconclusive: 0.461 µM [activator, full curve, poor fit] | 
Cn1c(=O)c2c(nc(N/N=C/c3ccncc3)n2Cc2ccccc2)n(C)c1=O | inactive | 
COCCCNc1nnc(Cc2ccc(Cl)cc2)c(=O)[nH]1 | inconclusive: 5.8 µM [activator, partial curve, poor fit] | 
CC[C@H](C)C(C(=O)N1CCN(C(=O)OC(C)(C)C)CC1)n1cc(C(CO)NC(=O)OC(C)(C)C)nn1 (stereo partly specified) | inconclusive: 2.91 µM [activator, full curve, poor fit] | 
CC(C)c1ccc(NC(=O)N2CCN(S(=O)(=O)c3ccccc3)CC2)cc1 | inconclusive: 29.1 µM [activator, single point] | 
C#CCn1cc(/C=N/Nc2nc3ccccc3[nH]2)c2ccccc21 | inconclusive: 18.4 µM [activator, single point] | 
Cc1ccc(OCC(=O)c2cc(C)n(C3CC3)c2C)c([N+](=O)[O-])n1 | inconclusive: 16.4 µM [activator, single point] | 
Cc1ccc(Nc2c([N+](=O)[O-])c(=O)oc3ccccc23)cc1 | inconclusive: 29.1 µM [activator, single point] | 
CC1(C)CC(=O)C(C2C3=C(CC(C)(C)CC3=O)Oc3c(Br)cc(Br)cc32)=C(O)C1 (stereo unspecified) | inactive | 
O=C(COc1ccccc1Cl)NCC(c1cccs1)N1CCOCC1 (stereo unspecified) | inactive | 
COc1ccc(C(=O)NNC(=O)Nc2ccc(Cl)cc2)cc1 | inconclusive: 29.1 µM [activator, single point] | 
COC(=O)c1c(C)c[nH]c1C | inconclusive: 0.82 µM [activator, partial curve, poor fit] | 
COc1ccc(CCN(C)CC(O)COC(c2ccc(F)cc2)c2ccc(F)cc2)cc1OC (stereo unspecified) | inconclusive: 16.4 µM [activator, single point] | 
COc1cccc(S(=O)(=O)Nc2ccc(C(=O)N3CCN(C(=O)c4ccco4)CC3)cc2)c1 | inactive | 
O=C(Nc1ccc(N2CCCC2)cc1)c1cc(Cl)ccc1Cl | inconclusive: 29.1 µM [activator, single point] | 
CC(/C=N/N1CCN(Cc2ccccc2)CC1)=C\c1ccccc1 | inactive | 
COc1ccc(NC(=O)N(C)C[C@H]2Oc3c(NC(=O)C4CC4)cccc3C(=O)N([C@H](C)CO)C[C@@H]2C)cc1 |  | inactive: -14.9% [at 9.22 µM]
CCOc1ccccc1N1CC(C(=O)N2CCOCC2)CC1=O (stereo unspecified) | inactive | 

In a second layout: results already given
SMILES	Potency	re-replication activation
CN1C/C(=C/c2ccsc2)C(=O)/C(=C/c2ccsc2)C1	active: 3.26 µM	
CC[C@H](C)C(C(=O)N1CCN(C(=O)OC(C)(C)C)CC1)n1cc(C(CO)NC(=O)OC(C)(C)C)nn1 (stereo partly specified)	inconclusive: 2.91 µM [activator, full curve, poor fit]	
C#CCn1cc(/C=N/Nc2nc3ccccc3[nH]2)c2ccccc21	inconclusive: 18.4 µM [activator, single point]	

Additional entries follow.

SMILES | Potency | re-replication activation
CCN(C(=O)CSC1=Nc2ccccc2C2CC=NN12)C1CCS(=O)(=O)C1 (stereo unspecified) | inconclusive: 0.146 µM [activator, full curve, poor fit] | 
O=C(NCC1CCCO1)C(c1ccc(F)cc1)N(C(=O)Cn1nnc(-c2ccc(F)cc2)n1)c1cccc(O)c1 (stereo unspecified) | inconclusive: 4.11 µM [activator, full curve] | 
Cc1ccc(C)c(OCCCNC2CCCC2)c1C | inconclusive: 2.91 µM [activator, partial curve, poor fit] | 
CCn1nc(NC(=O)CC(C)C)c2cc3cccc(C)c3nc21 | active: 20.6 µM | 
CCOC(=O)C1CCCN(c2nc(C)nc3c2oc2ccccc23)C1 (stereo unspecified) | inactive | 
CC(C)c1cc(CNC(=O)c2ccc(OC3CCN(Cc4ccccn4)CC3)cc2)on1 | inconclusive: 3.66 µM [activator, single point] | 
Cc1c(O)ccc2c(CN3CCN(Cc4ccccc4)CC3)cc(=O)oc12 | inconclusive: 20.6 µM [activator, partial curve, poor fit] | 
CC(C)Cn1c(O)c(/C=C2\C=NN=C2c2ccccc2)sc1=S | inconclusive: 18.4 µM [activator, single point] | 
C/C(Cc1ccccc1)=N\NC(=O)c1ccc(F)cc1 | inconclusive: 29.1 µM [activator, single point] | 
COc1ccc(NC(=O)CSc2nnc(C3CC3)n2C)cc1 | inconclusive: 29.1 µM [activator, single point] | 
CCCN(CCC)C(=O)c1ccccc1C(=O)N(CCC)CCC | inactive | 
O=C(c1ccc(C(F)(F)F)cc1)N1CCC(=O)N(C(COCc2ccc(Cl)cc2)Cc2ccccc2)CC1 (stereo unspecified) | inconclusive: 11.6 µM [activator, partial curve, poor fit] | 
CC(=O)Nc1ccc(C(=O)CSc2cc(C)c3cccc(C)c3n2)cc1 | inconclusive: 18.4 µM [activator, single point] | 
O=C(CCn1c(=O)oc2ccccc21)N1CCN(c2ccccc2F)CC1 | inactive | 
Cc1ccc(S(=O)(=O)N(CCC(=O)NCc2ccc(S(N)(=O)=O)cc2)c2ccccc2)cc1 | inconclusive: 29.1 µM [activator, single point] | 
COc1ccccc1[C@@H]1C(c2ccccc2)=NN(c2ccccc2)[C@H]1C(=O)N1CCOC1=O | inconclusive: 16.4 µM [activator, single point] | 
O=C(Cn1cc(COc2ccc(Br)cc2[N+](=O)[O-])nn1)c1ccc(O)cc1 | active: 9.2 µM | 
Cc1ccc2c(C)c(C(=O)N3CCN(c4ccncc4)CC3)oc2c1C | inconclusive: 25.9 µM [activator, single point] | 
Cc1ccnc(NC(=O)c2cccc(NS(=O)(=O)c3ccccc3C)c2)c1 | inactive | 
O=C(N/N=C/c1c(Cl)nc2ccccn2c1=O)c1cccnc1 | inconclusive: 29.1 µM [activator, single point] | 
Cc1cc(C)nc(SCC(=O)N/N=C\C(Br)=C\c2ccccc2)n1 | inconclusive: 18.4 µM [activator, partial curve, poor fit] | 
CCc1ccc(OCC(=O)N2c3ccccc3CCc3ccccc32)cc1 | inconclusive: 16.4 µM [activator, single point] | 

SMILES | Potency | re-replication activation
COc1ccc(CCN2C(=O)C(Oc3ccccc3C)C2c2ccc3c(c2)OCO3)cc1OC (stereo unspecified) | inconclusive: 11.6 µM [activator, partial curve, poor fit] | 
COc1ccc(N2CCN(CC(O)COC(c3ccc(F)cc3)c3ccc(F)cc3)CC2)cc1 (stereo unspecified) |  | inconclusive: 28.9% [activator]
CCOC1OC(=O)C(Cl)=C1Nc1ccccc1C (stereo unspecified) | inactive | 
O=C(Nc1cnn(Cc2ccc(Cl)c(Cl)c2)c1)C12CC3CC(CC(C3)C1)C2 | inconclusive: 32.6 µM [activator, partial curve, poor fit] | 
Cn1c(=O)c2c(SCC(=O)N3CCCC3)nc(-c3ccccc3)nc2n(C)c1=O | inactive | 
C=CCSc1nsc(NC(=O)Nc2cccc(C(C)=O)c2)n1 | inconclusive: 16.4 µM [activator, partial curve] | 
CSc1ccccc1NC(=O)CN(C)C(=O)C1CC(=O)N(C(C)c2ccccc2)C1 (stereo unspecified) | inactive | 
COc1ccc(OCCCC(=O)Nc2cc([N+](=O)[O-])ccc2C)cc1 | inconclusive: 29.1 µM [activator, single point] | 
CCOC(=O)N1CCN(C(=O)c2ccc(-n3c(C)ccc3C)cc2)CC1 | inconclusive: 29.1 µM [activator, single point] | 
COc1cc(OC)cc(C(=O)Nc2cccc3c2CCCC3)c1 | inconclusive: 29.1 µM [activator, single point] | 
COc1ccccc1C(=O)NCCC(=O)N1CCN(c2ccc(C(F)(F)F)cn2)CC1 | inconclusive: 0.291 µM [activator, partial curve, poor fit] | 
C=CCN(c1ccccc1)S(=O)(=O)c1cccc(C(=O)NCC2CCCO2)c1 (stereo unspecified) | inactive | 
Cc1ccc(NC(=O)CC2C(=O)N(Cc3ccccc3)C(=S)N2NC(=O)c2ccccc2)c(C)c1 (stereo unspecified) | inconclusive: 18.4 µM [activator, single point] | 
Cc1ccc(C(=O)Nc2ccc(Nc3ccccc3)cc2)cc1C | inconclusive: 18.4 µM [activator, single point] | 
CCCOc1ccc(N2C(=O)C3ON(c4ccccc4)C(c4ccc(O)c(OC)c4)C3C2=O)cc1 (stereo unspecified) | inconclusive: 2.59 µM [activator, full curve, poor fit] | 
CC1CCCC(NC(=O)C2CCCN2S(=O)(=O)c2cccc3nsnc23)C1C (stereo unspecified) | inactive | 
CCN(CC(=O)Nc1ccccc1OC)C(=O)CN1C(=O)NC2(CCCC2)C1=O | inconclusive: 11.6 µM [activator, partial curve, poor fit] | 
Cc1[nH]n(-c2ccccc2)c(=O)c1C(=O)c1ccc(Cl)cc1 | inactive | 
COc1cc(C(=O)Oc2cccnc2)cc(OC)c1OC | inconclusive: 29.1 µM [activator, single point] | 
CCN(CC)CCN1C(=O)/C(=C\c2ccc(Cl)c([N+](=O)[O-])c2)SC1=Nc1ccc(OC)cc1 | active: 3.66 µM | 
CCOc1ccc(OCC)c(NC(=O)CN2CCN(c3cccc(C)c3)C(C)C2)c1 (stereo unspecified) | inconclusive: 23.1 µM [activator, single point] | 
C=CCNCCCCOc1ccc(Br)cc1C | inconclusive: 18.4 µM [activator, single point] | 
